From the supplement of paper PMC11098740 come the findings set out here.

The chains behind the UniProt entries cited, without tags or fusion partners.
UniProt O14980, whole entry: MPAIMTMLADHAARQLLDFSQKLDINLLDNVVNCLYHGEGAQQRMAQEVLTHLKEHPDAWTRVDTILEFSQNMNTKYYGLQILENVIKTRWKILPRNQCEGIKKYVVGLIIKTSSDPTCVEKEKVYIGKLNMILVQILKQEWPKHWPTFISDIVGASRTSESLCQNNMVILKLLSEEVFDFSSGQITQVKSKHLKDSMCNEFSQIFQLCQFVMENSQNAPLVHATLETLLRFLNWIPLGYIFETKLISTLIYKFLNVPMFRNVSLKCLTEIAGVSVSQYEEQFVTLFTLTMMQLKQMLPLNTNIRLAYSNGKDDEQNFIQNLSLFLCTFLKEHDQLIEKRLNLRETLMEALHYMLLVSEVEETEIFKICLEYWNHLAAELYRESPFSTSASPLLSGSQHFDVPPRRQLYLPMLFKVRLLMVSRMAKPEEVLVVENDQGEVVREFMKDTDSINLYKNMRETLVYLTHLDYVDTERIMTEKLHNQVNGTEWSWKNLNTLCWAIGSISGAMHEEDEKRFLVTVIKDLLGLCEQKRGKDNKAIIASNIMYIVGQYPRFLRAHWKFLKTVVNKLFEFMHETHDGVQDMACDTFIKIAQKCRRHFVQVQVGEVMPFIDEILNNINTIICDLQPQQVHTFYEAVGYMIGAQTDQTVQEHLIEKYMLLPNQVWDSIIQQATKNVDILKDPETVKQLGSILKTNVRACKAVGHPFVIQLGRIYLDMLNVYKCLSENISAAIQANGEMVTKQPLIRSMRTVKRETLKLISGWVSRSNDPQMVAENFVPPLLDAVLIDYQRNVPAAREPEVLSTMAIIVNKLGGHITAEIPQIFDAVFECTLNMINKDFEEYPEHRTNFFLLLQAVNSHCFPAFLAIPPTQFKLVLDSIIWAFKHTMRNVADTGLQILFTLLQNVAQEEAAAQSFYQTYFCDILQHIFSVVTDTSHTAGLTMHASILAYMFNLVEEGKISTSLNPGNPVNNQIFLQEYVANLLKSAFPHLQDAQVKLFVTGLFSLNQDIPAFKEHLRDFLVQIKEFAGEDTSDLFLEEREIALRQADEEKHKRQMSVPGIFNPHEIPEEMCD

± gives the standard deviation of the averaged measurements. The list shows a part of the results. Single values are uncertain, as repeats are few or missing.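 The assay uses a mixed pool of 41 HAP1 clones in which 61 cancer-associated proteins bear intron-inserted fluorescent tags, and clones are distinguished by image pattern. Results are compared against DMSO-treated control wells, and the BRD4 degrader dBET6 is the positive control.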

In this test the target is XPO1 (intron 15 mScarlet tag, HAP1) (UniProt O14980). Description: XPO1 fluorescence intensity change vs DMSO (log2 fold change); higher = more XPO1 protein. The conditions noted are these: 6 h.
Consider `CC[C@]1(O)C[C@H]2CN(CCc3c([nH]c4ccccc34)[C@@](C(=O)OC)(c3cc4c(cc3OC)N(C=O)[C@H]3[C@@](O)(C(=O)OC)[C@H](OC(C)=O)[C@]5(CC)C=CCN6CC[C@]43[C@@H]65)C2)C1` [Vincristine] (0.246914 µM), for which the “XPO1 fluorescence intensity change (log2)” value was 0.0178. In the case of `CC1(C)[C@H](C(=O)O)N2C(=O)C[C@H]2S1(=O)=O` [Sulbactam] (10 µM) it was 0.0075; in that of `CN1C(CCl)Nc2cc(Cl)c(S(N)(=O)=O)cc2S1(=O)=O` (stereo unspecified) [Methyclothiazide] (9.99974 µM), 0.194; in that of `O=C(O)P(=O)(O)O` [Foscarnet] (10 µM), 0.0925.

Turning to `COc1cc(C(=O)O)ccc1NC(=O)[C@@H]1N[C@@H](CC(C)(C)C)[C@](C#N)(c2ccc(Cl)cc2F)[C@H]1c1cccc(Cl)c1F` [Idasanutlin] (20 µM), the “XPO1 fluorescence intensity change (log2)” value is -0.0266. `NC(=O)N[C@@H](CCC(=O)O)C(=O)O` [Carglumic Acid] (10 µM): the “XPO1 fluorescence intensity change (log2)” value was 0.128.

For the compound `CC(C)[C@H]1CC[C@H](C(=O)N[C@H](Cc2ccccc2)C(=O)O)CC1` [Nateglinide] (10 µM), the “XPO1 fluorescence intensity change (log2)” value is -0.123.

As to `C#Cc1cccc(Nc2ncnc3cc(OCCOC)c(OCCOC)cc23)c1` [Erlotinib] (20 µM), the “XPO1 fluorescence intensity change (log2)” value is -0.0189. To `COc1cc([C@@H]2c3cc4c(cc3[C@@H](O[C@@H]3O[C@@H]5CO[C@@H](C)O[C@H]5[C@H](O)[C@H]3O)[C@H]3COC(=O)[C@H]23)OCO4)cc(OC)c1O` [Etoposide] (20 µM) belongs 0.0296; to `Cc1cn(-c2cc(NC(=O)c3ccc(C)c(Nc4nccc(-c5cccnc5)n4)c3)cc(C(F)(F)F)c2)cn1` [Nilotinib] (20 µM), -0.0273; to `CS(=O)(=O)OCCCCOS(C)(=O)=O` [Busulfan] (20 µM), -0.288. In the case of `OC(c1cc(C(F)(F)F)nc2c(C(F)(F)F)cccc12)C1CCCCN1` (stereo unspecified) [Mefloquine] (10 µM) it was 0.0316; in that of `Nc1nc(F)nc2c1ncn2[C@@H]1O[C@H](CO)[C@@H](O)[C@@H]1O` [Fludarabine] (9.99886 µM), 0.0186; in that of `N=C(N)c1ccc(OCCCCCOc2ccc(C(=N)N)cc2)cc1` [Pentamidine] (10.00031669 µM), -0.00993. In the case of `c1ccc2[nH]c(-c3cscn3)nc2c1` [Thiabendazole] (10 µM) it was 0.0559. Take `CCCc1cc(=O)[nH]c(=S)[nH]1` [Propylthiouracil] (10 µM): the “XPO1 fluorescence intensity change (log2)” value is -0.107.

Consider `CCN(CCO)CCCC(C)Nc1ccnc2cc(Cl)ccc12` (stereo unspecified) [Hydroxychloroquine] (9.99954 µM), for which the “XPO1 fluorescence intensity change (log2)” value is -0.0721. For `O=C1CC2(CCCC2)CC(=O)N1CCCCN1CCN(c2ncccn2)CC1` [Buspirone] (10 µM), the “XPO1 fluorescence intensity change (log2)” value was -0.117. To `COc1cc(Cc2cnc(N)nc2N)cc(OC)c1OC` [Trimethoprim] (10 µM) belongs 0.113. To `c1ccc(CC2=NCCN2)cc1` [Tolazoline] (10 µM) belongs 0.0114; to `CCCc1nc(C(C)(C)O)c(C(=O)OCc2oc(=O)oc2C)n1Cc1ccc(-c2ccccc2-c2nnn[nH]2)cc1` [Olmesartan Medoxomil] (10.00003285 µM), 0.0346; to `NCCC(O)(P(=O)(O)O)P(=O)(O)O` [Pamidronic Acid] (10 µM), 0.136. In the case of `CCC1(c2ccccc2)C(=O)NCNC1=O` [Primidone] (10 µM) it was 0.048; in that of `CC(c1cc2ccccc2s1)N(O)C(N)=O` (stereo unspecified) [Zileuton] (10 µM), -0.164. Consider `Nc1ccn([C@@H]2O[C@H](CO)[C@@H](O)[C@@H]2O)c(=O)n1` [Cytarabine] (0.316228 µM), for which the “XPO1 fluorescence intensity change (log2)” value is -0.114. On to `CC1OC2(CS1)CN1CCC2CC1` (stereo unspecified) [Cevimeline] (11.8284 µM), for which the “XPO1 fluorescence intensity change (log2)” value was -0.141. To `C#CCC(Cc1cnc2nc(N)nc(N)c2n1)c1ccc(C(=O)N[C@@H](CCC(=O)O)C(=O)O)cc1` (stereo partly specified) [Pralatrexate] (0.0871 µM) belongs -0.018 ± 0.066; to `CS(=O)(=O)c1ccc(C(=O)Nc2ccc(Cl)c(-c3ccccn3)c2)c(Cl)c1` [Vismodegib] (20 µM), 0.113; to `C[C@]12C=CC(=O)C=C1CC[C@@H]1[C@@H]2[C@@H](O)C[C@@]2(C)[C@H]1CC[C@]2(O)C(=O)CO` [Prelone] (1.1755 µM), -0.153.

In the case of `CC/C(=C(\c1ccccc1)c1ccc(OCCN(C)C)cc1)c1ccccc1` [Tamoxifen] (20 µM), the “XPO1 fluorescence intensity change (log2)” value turned out to be 0.103. Regarding `CC(=O)O[C@H]1CC[C@@]2(C)C(=CC[C@@H]3[C@@H]2CC[C@]2(C)C(c4cccnc4)=CC[C@@H]32)C1` [Abiraterone Acetate] (20 µM), the “XPO1 fluorescence intensity change (log2)” value was 0.0304.
